According to paper PMC7293730:
These are yes or no findings as the source states them, for the method shown. Binding seen in cells or lysates may run through a third protein. These calls come from enrichment with a bait or labelling near it, and not all partners need be listed. Sequences can lack the tags named with a protein.

Protein sequences, listed by entry. Tags and fused reporters are not part of them.
UniProt P68104: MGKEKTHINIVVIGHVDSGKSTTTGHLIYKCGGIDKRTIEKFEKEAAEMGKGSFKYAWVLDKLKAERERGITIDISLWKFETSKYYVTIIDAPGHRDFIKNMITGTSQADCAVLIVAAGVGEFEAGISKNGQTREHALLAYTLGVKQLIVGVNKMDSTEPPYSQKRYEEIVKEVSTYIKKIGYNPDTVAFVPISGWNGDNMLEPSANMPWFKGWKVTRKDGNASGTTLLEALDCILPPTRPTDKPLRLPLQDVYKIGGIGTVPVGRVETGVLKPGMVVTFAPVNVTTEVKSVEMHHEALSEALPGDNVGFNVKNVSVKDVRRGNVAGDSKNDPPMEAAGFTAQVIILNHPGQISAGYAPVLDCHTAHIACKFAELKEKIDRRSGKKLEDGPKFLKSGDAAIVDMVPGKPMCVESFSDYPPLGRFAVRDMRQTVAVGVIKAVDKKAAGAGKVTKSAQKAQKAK
UniProt P04792: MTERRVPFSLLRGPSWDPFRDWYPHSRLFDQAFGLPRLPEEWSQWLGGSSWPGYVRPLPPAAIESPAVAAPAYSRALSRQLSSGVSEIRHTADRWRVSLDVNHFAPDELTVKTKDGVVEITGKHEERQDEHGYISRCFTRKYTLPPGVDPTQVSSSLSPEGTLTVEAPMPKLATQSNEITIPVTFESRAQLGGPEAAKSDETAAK
UniProt Q7Z5L9: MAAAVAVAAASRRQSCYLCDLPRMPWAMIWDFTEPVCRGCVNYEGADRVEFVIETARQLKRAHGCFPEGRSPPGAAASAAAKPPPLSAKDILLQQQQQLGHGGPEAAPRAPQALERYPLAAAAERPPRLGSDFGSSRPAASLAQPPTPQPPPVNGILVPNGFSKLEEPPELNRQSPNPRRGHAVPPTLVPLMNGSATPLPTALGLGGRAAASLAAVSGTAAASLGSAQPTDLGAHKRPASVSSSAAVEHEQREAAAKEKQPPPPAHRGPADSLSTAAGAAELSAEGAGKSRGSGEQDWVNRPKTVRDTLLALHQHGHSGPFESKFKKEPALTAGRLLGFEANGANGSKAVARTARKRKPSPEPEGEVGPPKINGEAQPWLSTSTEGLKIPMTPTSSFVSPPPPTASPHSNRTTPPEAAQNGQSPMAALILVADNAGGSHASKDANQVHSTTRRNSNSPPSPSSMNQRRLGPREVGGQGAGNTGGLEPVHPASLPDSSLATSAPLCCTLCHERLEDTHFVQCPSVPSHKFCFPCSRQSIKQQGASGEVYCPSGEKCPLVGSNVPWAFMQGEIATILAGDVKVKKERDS
UniProt P04264: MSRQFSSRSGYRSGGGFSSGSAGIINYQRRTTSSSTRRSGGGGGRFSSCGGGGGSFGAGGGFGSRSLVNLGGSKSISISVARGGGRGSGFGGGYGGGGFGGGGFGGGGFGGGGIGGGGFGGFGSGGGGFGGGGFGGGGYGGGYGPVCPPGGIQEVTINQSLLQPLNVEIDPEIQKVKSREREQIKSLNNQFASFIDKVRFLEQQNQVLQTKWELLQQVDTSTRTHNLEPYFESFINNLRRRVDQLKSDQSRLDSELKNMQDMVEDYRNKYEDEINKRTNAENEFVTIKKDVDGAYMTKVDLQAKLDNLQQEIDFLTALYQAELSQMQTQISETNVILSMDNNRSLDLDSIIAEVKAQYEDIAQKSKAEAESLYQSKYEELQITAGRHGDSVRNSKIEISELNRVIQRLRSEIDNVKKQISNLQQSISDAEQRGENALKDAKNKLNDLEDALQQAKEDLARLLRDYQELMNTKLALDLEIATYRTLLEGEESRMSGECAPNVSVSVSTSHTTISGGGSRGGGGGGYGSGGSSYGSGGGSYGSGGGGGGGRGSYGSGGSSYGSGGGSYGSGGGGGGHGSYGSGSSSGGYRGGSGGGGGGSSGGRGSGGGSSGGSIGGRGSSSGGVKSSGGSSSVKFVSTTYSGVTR
UniProt P27816: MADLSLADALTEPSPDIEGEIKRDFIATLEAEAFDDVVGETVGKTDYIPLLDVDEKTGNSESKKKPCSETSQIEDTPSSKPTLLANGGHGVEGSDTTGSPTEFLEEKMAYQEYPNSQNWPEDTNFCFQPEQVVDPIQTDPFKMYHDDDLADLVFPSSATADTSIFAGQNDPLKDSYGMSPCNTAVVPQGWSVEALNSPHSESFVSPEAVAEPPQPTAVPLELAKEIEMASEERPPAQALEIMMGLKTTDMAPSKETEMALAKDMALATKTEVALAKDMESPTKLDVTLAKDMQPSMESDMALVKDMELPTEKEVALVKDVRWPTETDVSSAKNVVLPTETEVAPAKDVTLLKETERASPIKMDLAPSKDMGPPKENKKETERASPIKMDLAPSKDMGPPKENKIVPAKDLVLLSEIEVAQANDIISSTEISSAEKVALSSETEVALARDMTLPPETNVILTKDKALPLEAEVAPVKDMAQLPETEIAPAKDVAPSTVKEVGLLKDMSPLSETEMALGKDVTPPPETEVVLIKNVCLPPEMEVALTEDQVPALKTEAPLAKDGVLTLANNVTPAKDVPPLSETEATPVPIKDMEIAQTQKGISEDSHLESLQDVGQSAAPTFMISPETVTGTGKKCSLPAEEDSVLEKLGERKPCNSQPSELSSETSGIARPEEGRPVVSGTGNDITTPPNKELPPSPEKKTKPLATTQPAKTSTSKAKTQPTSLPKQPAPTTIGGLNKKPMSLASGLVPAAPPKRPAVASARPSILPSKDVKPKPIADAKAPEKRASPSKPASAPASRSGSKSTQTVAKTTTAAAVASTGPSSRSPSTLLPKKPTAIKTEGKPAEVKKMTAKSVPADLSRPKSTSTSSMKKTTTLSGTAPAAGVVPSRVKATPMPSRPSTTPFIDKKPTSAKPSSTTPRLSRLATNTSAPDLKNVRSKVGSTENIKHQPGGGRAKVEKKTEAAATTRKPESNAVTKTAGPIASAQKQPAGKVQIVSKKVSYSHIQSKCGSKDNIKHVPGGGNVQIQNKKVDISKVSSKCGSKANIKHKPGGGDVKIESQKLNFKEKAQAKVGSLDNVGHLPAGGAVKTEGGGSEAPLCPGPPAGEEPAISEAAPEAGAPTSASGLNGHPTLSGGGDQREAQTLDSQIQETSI
UniProt P35637: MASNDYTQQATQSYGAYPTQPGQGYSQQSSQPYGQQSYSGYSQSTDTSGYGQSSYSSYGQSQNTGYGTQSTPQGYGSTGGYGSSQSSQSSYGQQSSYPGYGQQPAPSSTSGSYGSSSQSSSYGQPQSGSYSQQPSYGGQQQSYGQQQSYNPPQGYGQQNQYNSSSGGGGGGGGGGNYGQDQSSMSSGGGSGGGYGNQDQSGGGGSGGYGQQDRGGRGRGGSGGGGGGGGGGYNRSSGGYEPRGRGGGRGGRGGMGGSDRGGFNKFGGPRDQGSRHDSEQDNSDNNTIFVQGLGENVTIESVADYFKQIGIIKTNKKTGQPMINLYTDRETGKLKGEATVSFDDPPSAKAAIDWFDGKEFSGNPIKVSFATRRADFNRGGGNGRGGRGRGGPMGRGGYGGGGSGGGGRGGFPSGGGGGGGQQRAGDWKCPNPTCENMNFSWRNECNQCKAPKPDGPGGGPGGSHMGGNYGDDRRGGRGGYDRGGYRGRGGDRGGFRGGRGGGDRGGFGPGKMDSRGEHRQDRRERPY

Target: T1, Helicobacter pylori adhesin HpaA (neuraminyllactose-binding hemagglutinin), recombinant, 6x His tagged (Helicobacter pylori (strain ATCC 26695)) (UniProt P55969)
T1 sequence: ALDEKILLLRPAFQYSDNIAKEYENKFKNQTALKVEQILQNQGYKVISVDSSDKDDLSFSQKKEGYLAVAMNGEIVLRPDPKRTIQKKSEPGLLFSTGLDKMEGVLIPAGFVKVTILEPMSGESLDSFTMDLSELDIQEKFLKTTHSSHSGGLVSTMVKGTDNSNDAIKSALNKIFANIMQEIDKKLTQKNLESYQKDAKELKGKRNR
Experiment: affinity purification with mass spectrometry; only the target purified

Molecule | binding
Elongation factor 1-alpha 1 (from UniProt P68104 1-462) | binds
Heat shock protein beta-1 (from UniProt P04792 1-205) | binds
Interferon regulatory factor 2-binding protein 2 (from UniProt Q7Z5L9 1-587) | binds
Keratin, type II cytoskeletal 1 (from UniProt P04264 1-644) | binds
Microtubule-associated protein 4 (from UniProt P27816 1-1152) | binds
RNA-binding protein FUS (from UniProt P35637 1-526) | binds
Splicing factor 1 (protein, UniProt Q15637 1-639) MATGANATPLDFPSKKRKRSRWNQDTMEQKTVIPGMPTVIPPGLTREQERAYIVQLQIEDLTRKLRTGDLGIPPNPEDRSPSPEPIYNSEGKRLNTREFRTRKKLEEERHNLITEMVALNPDFKPPADYKPPATRVSDKVMIPQDEYPEINFVGLLIGPRGNTLKNIEKECNAKIMIRGKGSVKEGKVGRKDGQMLPGEDEPLHALVTANTMENVKKAVEQIRNILKQGIETPEDQNDLRKMQLRELARLNGTLREDDNRILRPWQSSETRSITNTTVCTKCGGAGHIASDCKFQRPGDPQSAQDKARMDKEYLSLMAELGEAPVPASVGSTSGPATTPLASAPRPAAPANNPPPPSLMSTTQSRPPWMNSGPSESRPYHGMHGGGPGGPGGGPHSFPHPLPSLTGGHGGHPMQHNPNGPPPPWMQPPPPPMNQGPHPPGHHGPPPMDQYLGSTPVGSGVYRLHQGKGMMPPPPMGMMPPPPPPPSGQPPPPPSGPLPPWQQQQQQPPPPPPPSSSMASSTPLPWQQNTTTTTTSAGTGSIPPWQQQQAAAAASPGAPQMQGNPTMVPLPPGVQPPLPPGAPPPPPPPPPGSAGMMYAPPPPPPPPMDPSNFVTMMGMGVAGMPPFGMPPAPPPPPPQN | binds
Protein S100-A11 (protein, UniProt P31949 1-105) MAKISSPTETERCIESLIAVFQKYAGKDGYNYTLSKTEFLSFMNTELAAFTKNQKDPGVLDRMMKKLDTNSDGQLDFSEFLNLIGGLAMACHDSFLKAVPSQKRT | binds
Transketolase (protein, UniProt P29401 1-623) MESYHKPDQQKLQALKDTANRLRISSIQATTAAGSGHPTSCCSAAEIMAVLFFHTMRYKSQDPRNPHNDRFVLSKGHAAPILYAVWAEAGFLAEAELLNLRKISSDLDGHPVPKQAFTDVATGSLGQGLGAACGMAYTGKYFDKASYRVYCLLGDGELSEGSVWEAMAFASIYKLDNLVAILDINRLGQSDPAPLQHQMDIYQKRCEAFGWHAIIVDGHSVEELCKAFGQAKHQPTAIIAKTFKGRGITGVEDKESWHGKPLPKNMAEQIIQEIYSQIQSKKKILATPPQEDAPSVDIANIRMPSLPSYKVGDKIATRKAYGQALAKLGHASDRIIALDGDTKNSTFSEIFKKEHPDRFIECYIAEQNMVSIAVGCATRNRTVPFCSTFAAFFTRAFDQIRMAAISESNINLCGSHCGVSIGEDGPSQMALEDLAMFRSVPTSTVFYPSDGVATEKAVELAANTKGICFIRTSRPENAIIYNNNEDFQVGQAKVVLKSKDDQVTVIGAGVTLHEALAAAELLKKEKINIRVLDPFTIKPLDRKLILDSARATKGRILTVEDHYYEGGIGEAVSSAVVGEPGITVTHLAVNRVPRSGKPAELLKMFGIDRDAIAQAVRGLITKA | binds
UPF0568 protein C14orf166 (protein, UniProt Q9Y224 1-244) MFRRKLTALDYHNPAGFNCKDETEFRNFIVWLEDQKIRHYKIEDRGNLRNIHSSDWPKFFEKYLRDVNCPFKIQDRQEAIDWLLGLAVRLEYGDNAEKYKDLVPDNSKTADNATKNAEPLINLDVNNPDFKAGVMALANLLQIQRHDDYLVMLKAIRILVQERLTQDAVAKANQTKEGLPVALDKHILGFDTGDAVLNEAAQILRLLHIEELRELQTKINEAIVAVQAIIADPKTDHRLGKVGR | binds
Peroxiredoxin-1 (protein, UniProt Q06830 1-199) MSSGNAKIGHPAPNFKATAVMPDGQFKDISLSDYKGKYVVFFFYPLDFTFVCPTEIIAFSDRAEEFKKLNCQVIGASVDSHFCHLAWVNTPKKQGGLGPMNIPLVSDPKRTIAQDYGVLKADEGISFRGLFIIDDKGILRQITVNDLPVGRSVDETLRLVQAFQFTDKHGEVCPAGWKPGSDTIKPDVQKSKEYFSKQK | binds
SNW domain-containing protein 1 (protein, UniProt Q13573 1-536) MALTSFLPAPTQLSQDQLEAEEKARSQRSRQTSLVSSRREPPPYGYRKGWIPRLLEDFGDGGAFPEIHVAQYPLDMGRKKKMSNALAIQVDSEGKIKYDAIARQGQSKDKVIYSKYTDLVPKEVMNADDPDLQRPDEEAIKEITEKTRVALEKSVSQKVAAAMPVRAADKLAPAQYIRYTPSQQGVAFNSGAKQRVIRMVEMQKDPMEPPRFKINKKIPRGPPSPPAPVMHSPSRKMTVKEQQEWKIPPCISNWKNAKGYTIPLDKRLAADGRGLQTVHINENFAKLAEALYIADRKAREAVEMRAQVERKMAQKEKEKHEEKLREMAQKARERRAGIKTHVEKEDGEARERDEIRHDRRKERQHDRNLSRAAPDKRSKLQRNENRDISEVIALGVPNPRTSNEVQYDQRLFNQSKGMDSGFAGGEDEIYNVYDQAWRGGKDMAQSIYRPSKNLDKDMYGDDLEARIKTNRFVPDKEFSGSDRRQRGREGPVQFEEDPFGLDKFLEEAKQHGGSKRPSDSSRPKEHEHEGKKRRKE | binds
